These are yes or no findings as the source states them, for the method shown. Binding seen in cells or lysates may run through a third protein. Some binding calls cover weakened binding; strength is not graded here.
Legend:
[1] = molecular target: T1, vitamin D receptor (human) (UniProt P11473); assay: co-IP; HEK293T co-transfected with AF4 and both VDR and RXR, 48 h; nuclear extracts (1 mg protein), precipitated with VDR or RXR antibody and Protein-G-Agarose at 4°C, washed three times with lysis buffer; Western blot for RXR, VDR and AF4
T1 sequence: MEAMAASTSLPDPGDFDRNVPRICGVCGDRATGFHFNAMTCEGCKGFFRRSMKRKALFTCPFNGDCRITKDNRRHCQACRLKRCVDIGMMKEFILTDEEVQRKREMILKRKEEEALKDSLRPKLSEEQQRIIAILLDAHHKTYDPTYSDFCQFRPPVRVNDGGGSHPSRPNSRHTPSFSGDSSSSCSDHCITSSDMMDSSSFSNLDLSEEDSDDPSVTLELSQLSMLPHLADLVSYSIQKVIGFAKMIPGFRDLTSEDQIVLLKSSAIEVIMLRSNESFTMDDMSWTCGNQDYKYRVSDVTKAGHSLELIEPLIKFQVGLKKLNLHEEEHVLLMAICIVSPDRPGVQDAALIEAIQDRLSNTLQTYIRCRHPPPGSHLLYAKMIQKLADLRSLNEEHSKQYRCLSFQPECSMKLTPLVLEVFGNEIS

[2] = molecular target: T1, vitamin D receptor (human); assay: co-IP; HEK293T co-transfected with AF4 and only one receptor (VDR or RXR), 48 h; nuclear extracts (1 mg protein), precipitated with VDR or RXR antibody and Protein-G-Agarose at 4°C, washed three times with lysis buffer; Western blot for RXR, VDR and AF4

binding [1]: binds
binding [2]: binds weakly
B1: AF4 (protein, UniProt P51825-1 1-1210)
chain: MAAQSSLYNDDRNLLRIREKERRNQEAHQEKEAFPEKIPLFGEPYKTAKGDELSSRIQNMLGNYEEVKEFLSTKSHTHRLDASENRLGKPKYPLIPDKGSSIPSSSFHTSVHHQSIHTPASGPLSVGNISHNPKMAQPRTEPMPSLHAKSCGPPDSQHLTQDRLGQEGFGSSHHKKGDRRADGDHCASVTDSAPERELSPLISLPSPVPPLSPIHSNQQTLPRTQGSSKVHGSSNNSKGYCPAKSPKDLAVKVHDKETPQDSLVAPAQPPSQTFPPPSLPSKSVAMQQKPTAYVRPMDGQDQAPSESPELKPLPEDYRQQTFEKTDLKVPAKAKLTKLKMPSQSVEQTYSNEVHCVEEILKEMTHSWPPPLTAIHTPSTAEPSKFPFPTKDSQHVSSVTQNQKQYDTSSKTHSNSQQGTSSMLEDDLQLSDSEDSDSEQTPEKPPSSSAPPSAPQSLPEPVASAHSSSAESESTSDSDSSSDSESESSSSDSEENEPLETPAPEPEPPTTNKWQLDNWLTKVSQPAAPPEGPRSTEPPRRHPESKGSSDSATSQEHSESKDPPPKSSSKAPRAPPEAPHPGKRSCQKSPAQQEPPQRQTVGTKQPKKPVKASARAGSRTSLQGEREPGLLPYGSRDQTSKDKPKVKTKGRPRAAASNEPKPAVPPSSEKKKHKSSLPAPSKALSGPEPAKDNVEDRTPEHFALVPLTESQGPPHSGSGSRTSGCRQAVVVQEDSRKDRLPLPLRDTKLLSPLRDTPPPQSLMVKITLDLLSRIPQPPGKGSRQRKAEDKQPPAGKKHSSEKRSSDSSSKLAKKRKGEAERDCDNKKIRLEKEIKSQSSSSSSSHKESSKTKPSRPSSQSSKKEMLPPPPVSSSSQKPAKPALKRSRREADTCGQDPPKSASSTKSNHKDSSIPKQRRVEGKGSRSSSEHKGSSGDTANPFPVPSLPNGNSKPGKPQVKFDKQQADLHMREAKKMKQKAELMTDRVGKAFKYLEAVLSFIECGIATESESQSSKSAYSVYSETVDLIKFIMSLKSFSDATAPTQEKIFAVLCMRCQSILNMAMFRCKKDIAIKYSRTLNKHFESSSKVAQAPSPCIASTGTPSPLSPMPSPASSVGSQSSAGSVGSSGVAATISTPVTIQNMTSSYVTITSHVLTAFDLWEQAEALTRKNKEFFARLSTNVCTLALNSSLVDLVHYTRQGFQQLQELTKTP

Reference: article PMC4694866
